These are yes or no findings as the source states them, for the method shown. In cells and extracts the contact can be indirect. Some results given as binding are weak or reduced against the parent protein; the word gives no strength. For part of these data: Where a sequence is shown, tags or fusion partners need not be part of it. Each block holds one binder with its values, some of them ahead of it.
Tests used:
[1] = target: HA-tagged human MyD88 (human) (UniProt Q99836); assay: co-immunoprecipitation from transfected HEK293 cells (anti-FLAG beads, anti-HA immunoblot)
[2] = target: human RICK (untagged) (human) (UniProt O43353); assay: co-immunoprecipitation from transfected HEK293 cells (anti-FLAG beads, anti-RICK immunoblot)
[3] = target: human RICK (untagged) (human) (UniProt O43353); assay: co-immunoprecipitation of endogenous proteins from human DC extracts (anti-IRF4 Ab IP, anti-RICK immunoblot)

Sequences of proteins named here, by UniProt entry; tags and fusion partners are left off.
UniProt Q99836: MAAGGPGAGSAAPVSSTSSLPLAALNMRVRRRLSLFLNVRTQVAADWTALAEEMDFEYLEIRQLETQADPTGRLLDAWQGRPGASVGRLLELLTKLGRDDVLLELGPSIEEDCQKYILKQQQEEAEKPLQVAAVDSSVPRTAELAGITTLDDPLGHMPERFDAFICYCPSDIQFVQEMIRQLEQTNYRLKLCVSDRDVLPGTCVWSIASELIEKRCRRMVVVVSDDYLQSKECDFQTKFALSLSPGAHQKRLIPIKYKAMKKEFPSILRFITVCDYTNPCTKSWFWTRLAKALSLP
UniProt O43353: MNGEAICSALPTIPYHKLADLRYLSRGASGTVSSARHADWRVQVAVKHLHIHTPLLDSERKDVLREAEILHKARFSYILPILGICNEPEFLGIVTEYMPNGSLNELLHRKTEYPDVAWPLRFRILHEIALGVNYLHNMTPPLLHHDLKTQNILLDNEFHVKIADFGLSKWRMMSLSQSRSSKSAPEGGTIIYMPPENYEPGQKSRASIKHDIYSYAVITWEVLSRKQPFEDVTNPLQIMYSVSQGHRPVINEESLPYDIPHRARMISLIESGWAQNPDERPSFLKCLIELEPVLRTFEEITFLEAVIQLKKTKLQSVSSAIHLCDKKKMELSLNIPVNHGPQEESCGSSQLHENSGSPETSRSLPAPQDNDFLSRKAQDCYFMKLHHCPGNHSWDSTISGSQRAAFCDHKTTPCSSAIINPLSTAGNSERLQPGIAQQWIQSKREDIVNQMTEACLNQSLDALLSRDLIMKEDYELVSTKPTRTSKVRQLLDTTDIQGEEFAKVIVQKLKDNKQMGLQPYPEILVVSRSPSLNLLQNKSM

- binding [1]: binds
- binding [2]: binds
B1: FLAG-tagged human IRF4 (other, UniProt Q15306 1-451, looked up)
chain: MNLEGGGRGGEFGMSAVSCGNGKLRQWLIDQIDSGKYPGLVWENEEKSIFRIPWKHAGKQDYNREEDAALFKAWALFKGKFREGIDKPDPPTWKTRLRCALNKSNDFEELVERSQLDISDPYKVYRIVPEGAKKGAKQLTLEDPQMSMSHPYTMTTPYPSLPAQQVHNYMMPPLDRSWRDYVPDQPHPEIPYQCPMTFGPRGHHWQGPACENGCQVTGTFYACAPPESQAPGVPTEPSIRSAEALAFSDCRLHICLYYREILVKELTTSSPEGCRISHGHTYDASNLDQVLFPYPEDNGQRKNIEKLLSHLERGVVLWMAPDGLYAKRLCQSRIYWDGPLALCNDRPNKLERDQTCKLFDTQQFLSELQAFAHHGRSLPRFQVTLCFGEEFPDPQRQRKLITAHVEPLLARQLYYFAQQNSGHFLRGYDLPEHISNPEDYHRSIRHSSIQE
notes: Expressed by transfection in HEK293 cells; pulled down from whole cell lysates with anti-FLAG beads; it is entered under this molecule; also called IFN-regulatory factor 4; FLAG-tagged IRF4; not shown: FLAG tag

- binding [3]: binds
B2: endogenous IRF4 of human monocyte-derived DCs (protein, UniProt Q15306 1-451, looked up)
chain: B1 chain
